From patent US20250073014A1, “METHODS, DEVICES AND SYSTEMS FOR TREATING NEOINTIMAL GROWTH” (priority 2022, published 2025)
At least one structure is not confirmed: it was looked up by name or label, or the drawing left a doubt.

Assay: Stability and solubility of rapamycin in DMSO and DMSO/saline
Format: physicochemical
Source text: The rapamycin solution in DMSO could be further diluted either in saline, PBS, or distilled water.
The best working solution is considered to be 50/50 DMSO/water i.e., 50% of the DMSO in solution. This could be envisioned valid if instead of saline blood is used.

For CO[C@H]1C[C@@H]2CC[C@@H](C)[C@@](O)(O2)C(=O)C(=O)N2CCCC[C@H]2C(=O)O[C@H]([C@H](C)C[C@@H]2CC[C@@H](O)[C@H](OC)C2)CC(=O)[C@H](C)/C=C(\C)[C@@H](O)[C@@H](OC)C(=O)[C@H](C)C[C@H](C)/C=C/C=C/C=C/1C [Rapamycin], the “Lowest concentration of DMSO in saline that allows rapamycin to remain soluble (no precipitation)” value was 20 % of the total volume (v/v).
